Results deposited as PubChem BioAssay AID504804 (Drosophila RNAi Screening Center, 2011).

Screen: 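Knock-downs shielding fly cells from apoptosis caused by DNA damage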 (primary screen)
Cell system: Drosophila Kc cells
Reagents: long dsRNA against Drosophila genes, 0.5 µg dsRNA per well
Duration: 96 h (48 h knock-down, then 48 h drug)
Challenge: doxorubicin 5 µg/ml for 48 h, added 48 h after dsRNA
Detection: 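Luminescent ATP counts per replicate, not normalised, reflecting viable cells after 48 h dsRNA knock-down followed by 48 h of 5 µg/ml doxorubicin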
Reading the numbers: raw ATP luminescence: higher = more viable cells, protection from doxorubicin
Hit rule: 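z-score of 2 or more over plate mean in both duplicates, retained only when retests and separate dsRNAs confirm the protection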
The deposit covers about 19,000 reagents; shown is a random part of those with a known target gene and a result. In the full data, 47 (0.25%) were called active. 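Signals are raw, not normalised; exact z-scores behind calls not deposited; actives needed confirmation, so some wells reaching 2 SD are inactive.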 Entries without a mark were called inactive. The numbers tell different reagents against one gene apart.

no.	gene knocked down	reagent no.	SD above plate mean	raw ATP luminescence, replicate 1	raw ATP luminescence, replicate 2
1	Pfrx	1		2.85e5	3.06e5
2	Pfrx	2		2.13e5	2.41e5
3	Tsp68C	1		38453	52997
4	PGRP-SA	1		3.32e5	3.02e5
5	CG32755	1		49730	46760
6	Plekhm1	1		62433	49103
7	CG5276	1		58073	55667
8	Sb	1		82150	65920
9	na	1		2.83e5	2.23e5
10	CG5126	1		1.08e5	95060
11	peb	1		27620	28470
12	mud	1		2.59e5	2.68e5
13	CG17065	1		2.46e5	2.63e5
14	Elp6	1		51443	24603
15	slx1	1		68483	53687
16	B-H1	1		1.98e5	1.84e5
17	nerfin-2	1		61503	45100
18	rad (retired record)	1		3.90e5	3.60e5
19	dgrn	1		57510	17180
20	Tsp66E	1		79607	76940
21	Rsbp15	1		54367	56970
22	CG13998	1		24917	25447
23	Hmbs	1		77330	90897
24	Mcad	1		28437	28773
25	Nepl12	1		65543	57827
26	CG14628	1		61970	74250
27	CG17819	1		69360	73470
28	CG3719	1		1.56e5	1.87e5
29	CG12241	1		70277	43233
30	CG13474	1		60337	51617
31	Polr2G	1		33203	29317
32	Spc25	1		82480	75150
33	RpS28a	1		44750	44080
34	CG18095	1		66263	72400
35	Ogdh	1		25323	26017
36	Ogdh	2		54317	43660
37	Snap25	1		3.94e5	2.83e5
38	Snap25	2		2.01e5	2.73e5
39	CG5934	1		54360	35530
40	CG14563	1		23943	63233
41	CG15283	1		73013	80397
42	Argk2	1		73953	89990
43	beat-Ia	1		56193	71420
44	Kif19A	1		1.66e5	1.78e5
45	CG12065	1		54430	57350
46	CG31391	1		62770	57227
47	CG18596	1		43303	35907
48	CG17097	1		46400	83130
49	CG6287	1		1.16e5	81297
50	LPCAT	1		4.45e5	3.60e5
51	LPCAT	2		2.49e5	2.74e5
52	CG15464 (retired record)	1		46080	45560
53	CG4467	1		52690	57220
54	CG13358	1		49900	52510
55	drk	1		41773	48343
56	BoYb	1		22887	19353
57	fon	1		1.21e5	81817
58	CG33914	1		92467	93837
59	CG14245	1		30950	41980
60	mRpS18A	1		60883	58373
61	CG5746	1		45523	48373
62	CG4681	1		49543	45577
63	Pof	1		69000	59983
64	mdlc	1		39573	51717
65	Trmt6	1		23823	35443
66	eIF3l	1		68893	70177
67	CG12299	1		56263	25837
68	CG11170	1		81273	62197
69	Papss	1		25303	21080
70	PIG-L	1		40000	37080
71	CG8060	1		71880	54953
72	CG7453	1		3.50e5	3.00e5
73	Fip1	1		21563	22967
74	CG9083	1		65927	69437
75	RabGGTb	1		1.10e5	90347
76	NtR	1		94073	56027
77	CG13114	1		42200	83977
78	y	1		48470	59860
79	Chchd3	1		30060	29160
80	CG17930	1		39177	42527
81	Pex10	1		54583	59857
82	Nepl3	1		1.15e5	69870
83	Frmd5	1		39133	76097
84	ac	1		21080	27030
85	mRRF2	1		61240	62130
86	TORIP	1		24803	24360
87	CG32750	1		42010	42930
88	Cyp28d1	1		1.26e5	78040
89	vkg	1		24020	27203
90	CG13101	1		74550	48590
91	CG13589	1	2 to 3 SD above plate mean	90733	73693
92	ptc	1		97227	89593
93	ptc	2		48043	75443
94	NPF	1		79920	67850
95	CG6283	1		66040	49480
96	Nca	1		65487	55680
97	Jhbp4	1		81850	78220
98	obst-J	1		69597	68790
99	CG32708	1		3.83e5	3.07e5
100	AMPdeam	1		2.45e5	2.90e5
101	AMPdeam	2		3.00e5	3.35e5
102	AMPdeam	3		2.38e5	2.26e5
103	babos	1		61620	69217
104	babos	2		53710	69727
105	CG7025	1		22750	19563
106	CG10348	1		39107	46237
107	SPE	1		38943	36947
